{
  "source": "ChEMBL document CHEMBL4316593",
  "about": "(Eur J Med Chem, 2019)",
  "format_in_all_cases": "cell-based",
  "conditions_in_all_cases": "U-87MG ATCC",
  "key": {"[1]": {"assay": "Inhibition of RTK/PI3K/AKT/mTOR signaling in human U87 cells assessed as up regulation of G protein-coupled receptor class C group 5 member A gene expression at cytotoxic IC50 measured after 48 hrs relative to control"}, "[2]": {"assay": "Inhibition of RTK/PI3K/AKT/mTOR signaling in human U87 cells assessed as up regulation of ARHGAP35 gene expression at cytotoxic IC50 measured after 48 hrs relative to control"}, "[3]": {"assay": "Inhibition of RTK/PI3K/AKT/mTOR signaling in human U87 cells assessed as down regulation of SMCR8 gene expression at cytotoxic IC50 measured after 48 hrs relative to control"}, "[4]": {"assay": "Inhibition of RTK/PI3K/AKT/mTOR signaling in human U87 cells assessed as down regulation of SRSF3 gene expression at cytotoxic IC50 measured after 48 hrs relative to control"}, "[5]": {"assay": "Inhibition of RTK/PI3K/AKT/mTOR signaling in human U87 cells assessed as up regulation of DnaJ heat shock protein family (Hsp40) member C16 gene expression at cytotoxic IC50 measured after 48 hrs relative to control"}, "[6]": {"assay": "Inhibition of RTK/PI3K/AKT/mTOR signaling in human U87 cells assessed as up regulation of NR2F1 gene expression at cytotoxic IC50 measured after 48 hrs relative to control"}, "[7]": {"assay": "Inhibition of RTK/PI3K/AKT/mTOR signaling in human U87 cells assessed as up regulation of ninjurin 1 gene expression at cytotoxic IC50 measured after 48 hrs relative to control"}, "[8]": {"assay": "Inhibition of RTK/PI3K/AKT/mTOR signaling in human U87 cells assessed as up regulation of carboxymethylenebutenolidase homolog gene expression at cytotoxic IC50 measured after 48 hrs relative to control"}, "[9]": {"assay": "Inhibition of RTK/PI3K/AKT/mTOR signaling in human U87 cells assessed as down regulation of CATSPERG gene expression at cytotoxic IC50 measured after 48 hrs relative to control"}, "[10]": {"assay": "Inhibition of RTK/PI3K/AKT/mTOR signaling in human U87 cells assessed as down regulation of PAPOLG gene expression at cytotoxic IC50 measured after 48 hrs relative to control"}, "[11]": {"assay": "Inhibition of RTK/PI3K/AKT/mTOR signaling in human U87 cells assessed as up regulation of MYO18A gene expression at cytotoxic IC50 measured after 48 hrs relative to control"}, "[12]": {"assay": "Inhibition of RTK/PI3K/AKT/mTOR signaling in human U87 cells assessed as down regulation of AGFG1 gene expression at cytotoxic IC50 measured after 48 hrs relative to control"}, "[13]": {"assay": "Inhibition of RTK/PI3K/AKT/mTOR signaling in human U87 cells assessed as down regulation of ZNF557 gene expression at cytotoxic IC50 measured after 48 hrs relative to control"}, "[14]": {"assay": "Inhibition of RTK/PI3K/AKT/mTOR signaling in human U87 cells assessed as down regulation of RAB3GAP2 gene expression at cytotoxic IC50 measured after 48 hrs relative to control"}, "[15]": {"assay": "Inhibition of RTK/PI3K/AKT/mTOR signaling in human U87 cells assessed as down regulation of MELK gene expression at cytotoxic IC50 measured after 48 hrs relative to control"}, "[16]": {"assay": "Inhibition of RTK/PI3K/AKT/mTOR signaling in human U87 cells assessed as up regulation of SSPO gene expression at cytotoxic IC50 measured after 48 hrs relative to control"}, "[17]": {"assay": "Inhibition of RTK/PI3K/AKT/mTOR signaling in human U87 cells assessed as up regulation of solute carrier family 20 member 1 gene expression at cytotoxic IC50 measured after 48 hrs relative to control"}, "[18]": {"assay": "Inhibition of RTK/PI3K/AKT/mTOR signaling in human U87 cells assessed as up regulation of rhomboid 5 homolog 2 gene expression at cytotoxic IC50 measured after 48 hrs relative to control"}, "[19]": {"assay": "Inhibition of RTK/PI3K/AKT/mTOR signaling in human U87 cells assessed as down regulation of PEG10 gene expression at cytotoxic IC50 measured after 48 hrs relative to control"}, "[20]": {"assay": "Inhibition of RTK/PI3K/AKT/mTOR signaling in human U87 cells assessed as up regulation of olfactory receptor family 51 subfamily B member 4 gene expression at cytotoxic IC50 measured after 48 hrs relative to control"}, "[21]": {"assay": "Inhibition of RTK/PI3K/AKT/mTOR signaling in human U87 cells assessed as down regulation of MAP1S gene expression at cytotoxic IC50 measured after 48 hrs relative to control"}, "[22]": {"assay": "Inhibition of RTK/PI3K/AKT/mTOR signaling in human U87 cells assessed as up regulation of Rho GTPase activating protein 19 gene expression at cytotoxic IC50 measured after 48 hrs relative to control"}, "[23]": {"assay": "Inhibition of RTK/PI3K/AKT/mTOR signaling in human U87 cells assessed as up regulation of extended synaptotagmin 1 gene expression at cytotoxic IC50 measured after 48 hrs relative to control"}, "[24]": {"assay": "Inhibition of RTK/PI3K/AKT/mTOR signaling in human U87 cells assessed as up regulation of casein kinase 2 alpha 1 gene expression at cytotoxic IC50 measured after 48 hrs relative to control"}, "[25]": {"assay": "Inhibition of RTK/PI3K/AKT/mTOR signaling in human U87 cells assessed as down regulation of TERF2IP gene expression at cytotoxic IC50 measured after 48 hrs relative to control"}, "[26]": {"assay": "Inhibition of RTK/PI3K/AKT/mTOR signaling in human U87 cells assessed as down regulation of SRP68 gene expression at cytotoxic IC50 measured after 48 hrs relative to control"}, "[27]": {"assay": "Inhibition of RTK/PI3K/AKT/mTOR signaling in human U87 cells assessed as up regulation of ADGRF1 gene expression at cytotoxic IC50 measured after 48 hrs relative to control"}, "[28]": {"assay": "Inhibition of RTK/PI3K/AKT/mTOR signaling in human U87 cells assessed as down regulation of ACTR3 gene expression at cytotoxic IC50 measured after 48 hrs relative to control"}, "[29]": {"assay": "Inhibition of RTK/PI3K/AKT/mTOR signaling in human U87 cells assessed as down regulation of CDCA5 gene expression at cytotoxic IC50 measured after 48 hrs relative to control"}, "[30]": {"assay": "Inhibition of RTK/PI3K/AKT/mTOR signaling in human U87 cells assessed as down regulation of CHMP4C gene expression at cytotoxic IC50 measured after 48 hrs relative to control"}, "[31]": {"assay": "Inhibition of RTK/PI3K/AKT/mTOR signaling in human U87 cells assessed as down regulation of CKB gene expression at cytotoxic IC50 measured after 48 hrs relative to control"}, "[32]": {"assay": "Inhibition of RTK/PI3K/AKT/mTOR signaling in human U87 cells assessed as down regulation of ZNF680 gene expression at cytotoxic IC50 measured after 48 hrs relative to control"}},
  "note": "The source gives many values for each of these; only a part stands here.",
  "data": [
    {"smiles": "CC(=O)C(=NNc1ccccc1C#N)C(C)=O", "values": [
      {"measurement": "log2FC", "setting": "[1]", "result": 1.41},
      {"measurement": "log2FC", "setting": "[2]", "result": 0.374},
      {"measurement": "log2FC", "setting": "[3]", "result": -0.785},
      {"measurement": "log2FC", "setting": "[4]", "result": -0.351},
      {"measurement": "log2FC", "setting": "[5]", "result": 0.767},
      {"measurement": "log2FC", "setting": "[6]", "result": 3.56},
      {"measurement": "log2FC", "setting": "[7]", "result": 0.818},
      {"measurement": "log2FC", "setting": "[8]", "result": 1.29},
      {"measurement": "log2FC", "setting": "[9]", "result": -1.65},
      {"measurement": "log2FC", "setting": "[10]", "result": -0.701},
      {"measurement": "log2FC", "setting": "[11]", "result": 0.521},
      {"measurement": "log2FC", "setting": "[12]", "result": -0.617},
      {"measurement": "log2FC", "setting": "[13]", "result": -1.32},
      {"measurement": "log2FC", "setting": "[14]", "result": -0.753},
      {"measurement": "log2FC", "setting": "[15]", "result": -0.89},
      {"measurement": "log2FC", "setting": "[16]", "result": 1.86},
      {"measurement": "log2FC", "setting": "[17]", "result": 0.875},
      {"measurement": "log2FC", "setting": "[18]", "result": 0.702},
      {"measurement": "log2FC", "setting": "[19]", "result": -1.38},
      {"measurement": "log2FC", "setting": "[20]", "result": 1.55},
      {"measurement": "log2FC", "setting": "[21]", "result": -0.65},
      {"measurement": "log2FC", "setting": "[22]", "result": 0.851},
      {"measurement": "log2FC", "setting": "[23]", "result": 0.812},
      {"measurement": "log2FC", "setting": "[24]", "result": 1.01},
      {"measurement": "log2FC", "setting": "[25]", "result": -1.08},
      {"measurement": "log2FC", "setting": "[26]", "result": -0.483},
      {"measurement": "log2FC", "setting": "[27]", "result": 3.07},
      {"measurement": "log2FC", "setting": "[28]", "result": -0.461},
      {"measurement": "log2FC", "setting": "[29]", "result": -1.2},
      {"measurement": "log2FC", "setting": "[30]", "result": -0.977},
      {"measurement": "log2FC", "setting": "[31]", "result": -0.855},
      {"measurement": "log2FC", "setting": "[32]", "result": -1.35}
    ]}
  ]
}
